Results on one molecule are retold here after ChEMBL document CHEMBL4828736, “Discovery of ASTX029, A Clinical Candidate Which Modulates the Phosphorylation and Catalytic Activity of ERK1/2” (J Med Chem, 2021).

Amino acid sequences for entries named in this document (tags omitted).
UniProt P08684, whole entry: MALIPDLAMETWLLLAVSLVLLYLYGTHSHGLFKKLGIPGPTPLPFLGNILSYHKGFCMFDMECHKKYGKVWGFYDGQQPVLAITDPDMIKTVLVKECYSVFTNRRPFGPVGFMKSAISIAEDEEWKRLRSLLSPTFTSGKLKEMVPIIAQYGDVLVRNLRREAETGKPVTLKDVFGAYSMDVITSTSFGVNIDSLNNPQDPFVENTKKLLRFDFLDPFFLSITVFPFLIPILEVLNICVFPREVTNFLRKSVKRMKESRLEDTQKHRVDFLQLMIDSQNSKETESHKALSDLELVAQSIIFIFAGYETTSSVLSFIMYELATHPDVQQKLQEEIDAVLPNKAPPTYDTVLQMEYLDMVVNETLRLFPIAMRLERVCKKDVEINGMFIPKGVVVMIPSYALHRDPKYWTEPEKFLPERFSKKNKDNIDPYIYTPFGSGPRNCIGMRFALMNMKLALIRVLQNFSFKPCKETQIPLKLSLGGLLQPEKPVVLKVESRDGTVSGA

SMILES strings stand for the structures.

Data set [1] is described as follows: in vitro. The following applies: CD1, mouse, microsomes.
Data set [2] can be described thus: in vitro. The following applies: human, microsomes.
Another data set concerns the target CYP3A4 (Homo sapiens, UniProt P08684). Put plainly: in vitro. As to conditions: recombinant enzyme.

For the molecule `COc1cc(F)cc([C@H](NC(=O)CN2Cc3ccc(-c4nc(NC5CCOCC5)ncc4Cl)cc3C2=O)[C@@H](C)O)c1`, the values for the half-life at 40 min, 1 µM in the data set “in vitro [1]”, in the data set “in vitro [2]” and at CYP3A4 were 32 min, 25 min and < 5 min, respectively.

What is called half-life is how long it takes for the measured level to halve.
